Data on 2 molecules can be found in patent US20200033363A1 (GARVAN INSTITUTE OF MEDICAL RESEARCH, published 2020).

For experiment [1], the target named is T1, human VEGFA 121 (human, UniProt P15692-9 27-147, biotinylated (BLI assays)).
T1 construct: also called biotinylated VEGF
T1 sequence (looked up): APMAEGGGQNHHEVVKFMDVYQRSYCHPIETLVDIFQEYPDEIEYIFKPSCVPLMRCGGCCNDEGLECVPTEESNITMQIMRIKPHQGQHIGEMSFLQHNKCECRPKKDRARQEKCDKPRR
As to the kind of experiment: SEC-MALLS of VLD9-Fc (short mutant hinge) mixed with VEGFA121.

For experiment [2], the target named is T1, human VEGFA 121. In words: MALLS (FIG. 16B).
The target of experiment [3] is T1, human VEGFA 121. As to the kind of experiment: MALLS.
The target of experiment [4] is vascular endothelial growth factor A (VEGFA) (UniProt P15692). In words: X-ray crystal structure of VLD9-VEGFA.
The target is the same in experiment [5]. In words: phage display selection and soluble fragment ELISA. For orientation: In an ELISA, binding on a coated surface is turned into a signal by an enzyme label.

Results are given in words; binding and its absence hold for the method and conditions named. Some results given as binding are weak or reduced against the parent protein; the word gives no strength. For some assays here: Where a sequence is shown, tags or fusion partners need not be part of it.

B1: VLD9-Fc with short mutant hinge (Fc fusion, not shown: a dimerising Fc or GST)
chain: DIQMTQSPSSLSASVGDRVTITCRASRAIAAYLNWYQQKPGKAPKLLIYAYSDLQSGVPSRFSGSGSGTDFTLTISSLQPEDFATYYCQQVWANPYTFGQGTKVEIKRA
As for B1, the binding entry in experiment [1], in experiment [2] and in experiment [3] was “binds” throughout.

B2: VLD9 homodimer (other)
VL: DIQMTQSPSSLSASVGDRVTITCRASRAIAAYLNWYQQKPGKAPKLLIYAYSDLQSGVPSRFSGSGSGTDFTLTISSLQPEDFATYYCQQVWANPYTFGQGTKVEIKRA
notes: Homodimer of two identical human light chain variable domains selected on VEGF; Expressed generally as Ig5 and Ig12 were; also called VLD9 dimer; immunoglobulin VLD9
As for B2, the binding entry in experiment [4] and in experiment [5] was “binds” throughout.
